Literature values, collected in patent US20100112724A1, “METHOD OF DETERMINATION OF PROTEIN LIGAND BINDING AND OF THE MOST PROBABLE LIGAND POSE IN PROTEIN BINDING SITE” (priority 2007, published 2010).

Test system: protein of the protein-ligand complex (pdb code)
Settings: experimentally known binding affinity of test and training protein-ligand complexes selected from PDB, structures described in publications [7, 8, 9]

Q: Which “ΔG, kcal/mol (free energy of ligand-protein binding)” value does the source give for `N=C(N)c1ccc(C[C@@H](NC(=O)CNS(=O)(=O)c2ccc3ccccc3c2)C(=O)N2CCCCC2)cc1` [1ETS] here?
A: -11.5 kcal/mol

Q: Which “ΔG, kcal/mol (free energy of ligand-protein binding)” value does the source give for `N=C(N)c1ccc(C[C@@H](NC(=O)CNS(=O)(=O)c2ccc3ccccc3c2)C(=O)N2CCCCC2)cc1` [1PPC] here?
A: -8.6 kcal/mol
